Laboratory results published in the supplement of paper PMC7877785.
± gives the uncertainty stated by the source. Many of these values have a large error.

Experiment: self-splicing fitness, log relative to wild type (ln ratio); higher = more splicing; Tetrahymena group I intron in knt gene, E. coli kanamycin selection, DiMSum; sequences stand for … in CUCUCU…GGAGGGAAAAGUUAUCAGGCAUGCACCUGGUAGCUAGUCUUUAAACCAAUAGAUUGCAUCGGUUUAAAAGGCAAGACCGUCAAAUUGCGGGAAAGGGGUCAACAGCCGUUCAGUACCAAGUCUCAGGGGAAACUUUGAGAUGGCCUUGCAAAGGGUAUGGUAAUAAGCUGACGGACAUGGUCCUAACCACGCAGCCAAGUCCUAAGUCAACAGAUCUUCUGUUGAUAUGGAUGCAGUUCACAGACUAAAUGUCGGUCGGGGAAGAUGUAUUCUUCUCAUAAGAUAUAGUCGGACCUCUCCUUAAUGGGAGCUAGCGGAUGAAGUGAUGCAACACUGGAGCCGCUGGGAACUAAUUUGUAUGCGAAAGUAUAUUGAUUAGUUUUGGAGUACUCGUGGUCG
How it was run: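 The eight P1ex-region nucleotides of an intron in the knt kanamycin-resistance gene on pET-22b(+) were all randomised and the library put into E. coli BL21(DE3). Six replicate transformations were grown overnight at 37°C or 30°C on LB agar with or without 25 μg/mL kanamycin, together with 100 μg/mL carbenicillin, 50 μM IPTG and 0.2% rhamnose. Colonies were pooled and amplicon-sequenced on an Illumina HiSeq 2500. Fitness from DiMSum is the error-weighted combination of wild-type-normalised replicate fold changes, kanamycin over none.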

| Sequence | self-splicing fitness (ln) (30 °C) | self-splicing fitness (ln) (37 °C) |
| --- | --- | --- |
| AAGGAGCAAUAUUACGCCAU | -3.54 ± 0.73 | – |
| UUGCAGCAAUAUUACGCGGC | -4.65 ± 0.72 | – |
| CCCAAGCAAUAUUACGCAUG | -3.29 ± 0.2 | -2.34 ± 0.22 |
| GACGAGCAAUAUUACGACCA | -2.79 ± 0.54 | -2.66 ± 0.77 |
| AGUGAGCAAUAUUACGGAGA | -3.96 ± 0.52 | – |
| UUUGAGCAAUAUUACGCUCC | – | -0.74 ± 0.67 |
| UAGUAGCAAUAUUACGUAUA | -1.69 ± 0.25 | -1.14 ± 0.27 |
| GGCGAGCAAUAUUACGACAG | – | -3.62 ± 0.72 |
| GUAGAGCAAUAUUACGCUGC | – | -1.39 ± 1.2 |
| CUUGAGCAAUAUUACGAUUC | -2.47 ± 1.1 | – |
| GCUGAGCAAUAUUACGAUCC | -1.34 ± 0.15 | 0.743 ± 0.24 |
| AGUUAGCAAUAUUACGAGCG | -0.12 ± 0.1 | 0.237 ± 0.11 |
| UUUGAGCAAUAUUACGUUCC | – | -2.64 ± 0.75 |
| CUCUAGCAAUAUUACGCGCC | – | -1.56 ± 0.61 |
| GCGGAGCAAUAUUACGCACG | -4.08 ± 0.73 | -3.48 ± 0.73 |
| CUCUAGCAAUAUUACGGUAA | -2.38 ± 0.24 | -2.14 ± 0.21 |
| CUUAAGCAAUAUUACGAGCC | -4.96 ± 0.72 | – |
| AUUAAGCAAUAUUACGGACC | -1.96 ± 1.2 | -1.05 ± 0.6 |
| UCGUAGCAAUAUUACGAAGG | – | -2.39 ± 1.1 |
| AUUGAGCAAUAUUACGUCCG | -2.58 ± 0.16 | -2.91 ± 0.48 |
| CUCGAGCAAUAUUACGUUCG | -2.77 ± 0.78 | – |
| AGAGAGCAAUAUUACGAAAA | -2.21 ± 1.1 | – |
| CGCAAGCAAUAUUACGCCAC | -1.82 ± 0.53 | – |
| UCGGAGCAAUAUUACGCCGU | -2.37 ± 0.64 | -2.38 ± 0.64 |

| Sequence | self-splicing fitness (ln) (30 °C) | self-splicing fitness (ln) (37 °C) |
| --- | --- | --- |
| ACAGAGCAAUAUUACGCUAC | – | -2.82 ± 0.54 |
| CUUGAGCAAUAUUACGUCCC | -3.07 ± 0.64 | -1.04 ± 0.64 |
| GGCCAGCAAUAUUACGCUGC | -3.96 ± 1 | – |
| UGAGAGCAAUAUUACGACGA | -2.64 ± 0.5 | -0.482 ± 0.6 |
| UAAUAGCAAUAUUACGCUGC | – | -2.64 ± 0.53 |
| UUUGAGCAAUAUUACGACGU | -3.44 ± 0.52 | -3.28 ± 0.6 |
| UUGCAGCAAUAUUACGCGGU | – | -3.24 ± 0.52 |
| AUUGAGCAAUAUUACGCCCC | -1.97 ± 1.2 | – |
| AUUAAGCAAUAUUACGGCUG | -0.405 ± 0.083 | -0.233 ± 0.1 |
| CGGGAGCAAUAUUACGCUUC | -3.18 ± 0.74 | – |
| AUAGAGCAAUAUUACGCCAC | -3.49 ± 0.74 | -0.792 ± 0.52 |
| AUUCAGCAAUAUUACGCCUC | -1.43 ± 0.15 | 0.286 ± 0.16 |
| UAGGAGCAAUAUUACGCACC | -2.65 ± 1.1 | -2.86 ± 0.75 |
| CAUCAGCAAUAUUACGGAAC | -2.6 ± 0.19 | -2.54 ± 0.36 |
| CUCGAGCAAUAUUACGGCGC | – | -0.693 ± 0.71 |
| UGAUAGCAAUAUUACGAUCA | -2.14 ± 0.65 | 0.406 ± 1.2 |
| CACGAGCAAUAUUACGAAAA | -2.14 ± 0.17 | -2.66 ± 0.25 |
| ACGUAGCAAUAUUACGCCCG | -0.224 ± 0.13 | -0.474 ± 0.17 |
| UAUGAGCAAUAUUACGUCCC | – | -2.67 ± 1.1 |
| GUCAAGCAAUAUUACGCUAC | -4.48 ± 0.72 | – |
| GGUAAGCAAUAUUACGCUGG | -4.39 ± 0.51 | -3.25 ± 0.73 |
| CAAGAGCAAUAUUACGACAC | -3.27 ± 0.74 | -1.4 ± 0.53 |
| CUGCAGCAAUAUUACGUUAG | -2.97 ± 0.1 | -1.19 ± 0.1 |
| CGUGAGCAAUAUUACGUUCA | -3.04 ± 0.54 | -1.39 ± 0.9 |

Rewritten in CSV form: entries from further up
Sequence,self-splicing fitness (ln) (30 °C),self-splicing fitness (ln) (37 °C)
UUGCAGCAAUAUUACGCGGC,-4.65 ± 0.72,–
AUUGAGCAAUAUUACGCCCC,-1.97 ± 1.2,–

A second format for part of the listing above.
AUUCAGCAAUAUUACGCCUC
  self-splicing fitness (ln) (30 °C): -1.43 ± 0.15
  self-splicing fitness (ln) (37 °C): 0.286 ± 0.16
UAGGAGCAAUAUUACGCACC
  self-splicing fitness (ln) (30 °C): -2.65 ± 1.1
  self-splicing fitness (ln) (37 °C): -2.86 ± 0.75

Further records follow.

| Sequence | self-splicing fitness (ln) (30 °C) | self-splicing fitness (ln) (37 °C) |
| --- | --- | --- |
| CCUAAGCAAUAUUACGCUGC | -4.51 ± 0.72 | – |
| UUCUAGCAAUAUUACGGUAU | -3.8 ± 0.54 | – |
| CGAGAGCAAUAUUACGAUUA | -3.17 ± 1 | -2.31 ± 0.64 |
| CUCGAGCAAUAUUACGCUGC | – | -2.71 ± 0.76 |
| GAGCAGCAAUAUUACGAACC | -0.844 ± 0.5 | 0.0981 ± 1.2 |
| UUCGAGCAAUAUUACGACGC | -4.29 ± 1.1 | – |
| CCAUAGCAAUAUUACGUAAC | -4.77 ± 0.59 | – |
| GCAGAGCAAUAUUACGCCCU | -2.94 ± 0.69 | – |
| UAUUAGCAAUAUUACGUUCC | -3.37 ± 0.74 | -1.37 ± 1.2 |
| CGACAGCAAUAUUACGUCCC | – | 0.827 ± 0.58 |
| GACGAGCAAUAUUACGACAA | -3.73 ± 0.61 | – |
| GGCGAGCAAUAUUACGUGGA | -3.89 ± 0.59 | -3.72 ± 0.73 |
| UGGGAGCAAUAUUACGAUGA | -2.75 ± 0.56 | – |
| CUUUAGCAAUAUUACGAACC | – | -2.44 ± 0.84 |
| ACGUAGCAAUAUUACGUCAC | -4.24 ± 0.51 | – |
| GUCAAGCAAUAUUACGCUGC | -5.19 ± 0.51 | – |
| CCGAAGCAAUAUUACGUCCU | -3.34 ± 0.74 | -1.89 ± 0.28 |
| UCAGAGCAAUAUUACGCCAC | -3.37 ± 0.53 | -1.47 ± 1.2 |
| CGAUAGCAAUAUUACGCCCG | -1.39 ± 0.18 | -1.44 ± 0.25 |
| GCAAAGCAAUAUUACGUGAA | -0.989 ± 0.099 | -0.0746 ± 0.12 |
| UUUCAGCAAUAUUACGCGCU | – | -1.8 ± 0.66 |
| UAGUAGCAAUAUUACGGUAU | -2.55 ± 0.24 | -2.39 ± 0.35 |
| UCUGAGCAAUAUUACGCGCA | – | -3.24 ± 0.52 |
| CGUGAGCAAUAUUACGAAAA | -4.6 ± 1 | -2.88 ± 0.43 |

Reprinted at random: two entries already listed.

| Sequence | self-splicing fitness (ln) (30 °C) | self-splicing fitness (ln) (37 °C) |
| --- | --- | --- |
| UGGGAGCAAUAUUACGAUGA | -2.75 ± 0.56 | – |
| ACGUAGCAAUAUUACGCCCG | -0.224 ± 0.13 | -0.474 ± 0.17 |

Going on with the list.

| Sequence | self-splicing fitness (ln) (30 °C) | self-splicing fitness (ln) (37 °C) |
| --- | --- | --- |
| CUUCAGCAAUAUUACGCUUU | -4.78 ± 0.58 | -2.85 ± 0.31 |
| CGCUAGCAAUAUUACGCGAA | -4.16 ± 1 | – |
| GCGCAGCAAUAUUACGGCGU | – | -2.29 ± 0.51 |
| ACUUAGCAAUAUUACGUCCU | -0.527 ± 0.085 | -0.132 ± 0.13 |
| GGUUAGCAAUAUUACGGUUC | -0.571 ± 0.086 | -0.114 ± 0.11 |
| AACGAGCAAUAUUACGAGAC | – | -0.98 ± 0.77 |
| UAAUAGCAAUAUUACGUUCC | -3.48 ± 1.1 | – |
| UGACAGCAAUAUUACGGAUU | -2.54 ± 0.094 | -2.29 ± 0.13 |
| AUGUAGCAAUAUUACGGAAA | – | -2.5 ± 0.54 |
| CGGUAGCAAUAUUACGUAAU | – | -1.19 ± 0.64 |
| ACCGAGCAAUAUUACGGUCC | – | -0.214 ± 0.61 |
| CGCCAGCAAUAUUACGCCAC | -4.21 ± 0.51 | – |
| CCUUAGCAAUAUUACGCACG | – | -0.935 ± 0.77 |
| CAAUAGCAAUAUUACGCUAU | – | -1.96 ± 0.51 |
| UCGAAGCAAUAUUACGCUUG | -4.28 ± 0.59 | – |
| AAUGAGCAAUAUUACGCGUG | -2.11 ± 0.11 | -0.949 ± 0.1 |
| CCCGAGCAAUAUUACGUUCC | – | -3.02 ± 0.52 |
| UGGGAGCAAUAUUACGAGGU | -3.69 ± 0.74 | -1.66 ± 0.81 |
| CCAAAGCAAUAUUACGAUUG | -1.36 ± 0.06 | -0.695 ± 0.081 |
| GGUAAGCAAUAUUACGCUCC | -3.63 ± 0.73 | – |
| ACGGAGCAAUAUUACGUACC | -4.72 ± 1 | -0.522 ± 0.72 |
| AAGAAGCAAUAUUACGAUUG | -2.85 ± 0.26 | -1.78 ± 0.19 |
| CAGAAGCAAUAUUACGGGCC | -4.76 ± 1 | -3.56 ± 0.6 |
| UAUGAGCAAUAUUACGGAAC | -2.87 ± 1.1 | -2.69 ± 0.62 |

| Sequence | self-splicing fitness (ln) (30 °C) | self-splicing fitness (ln) (37 °C) |
| --- | --- | --- |
| CCUGAGCAAUAUUACGCUAC | -4.29 ± 1.1 | -3.26 ± 1 |
| GAUGAGCAAUAUUACGAGAA | -2.65 ± 1.1 | -1.47 ± 0.74 |
| GCGAAGCAAUAUUACGUUCG | -4.25 ± 0.52 | -0.778 ± 0.82 |
| UAGGAGCAAUAUUACGCUGA | -3.38 ± 0.77 | – |
| CCGCAGCAAUAUUACGGCCC | – | -0.95 ± 0.73 |
| CGUAAGCAAUAUUACGCAUC | -3.66 ± 0.6 | – |
| UCACAGCAAUAUUACGCACC | – | -3.01 ± 1 |
| CUAGAGCAAUAUUACGGAAC | – | -2.3 ± 0.55 |
| CUAGAGCAAUAUUACGAGUC | – | -3 ± 1.1 |
| GGUUAGCAAUAUUACGAAGA | -1.68 ± 0.69 | -1.74 ± 0.69 |
| GGUUAGCAAUAUUACGGCCC | – | -2.08 ± 1.1 |
| CGCGAGCAAUAUUACGAUUC | -2.62 ± 1.1 | -1.95 ± 0.81 |
| GGAGAGCAAUAUUACGUGCC | -4.34 ± 0.72 | – |
| AGUCAGCAAUAUUACGGACC | -1.64 ± 0.74 | -0.685 ± 0.82 |
| UUAGAGCAAUAUUACGGAAG | – | -1.61 ± 0.53 |
| CAUUAGCAAUAUUACGGCCA | – | -2.75 ± 0.54 |
| UAAUAGCAAUAUUACGUAUU | -4.09 ± 0.28 | -1.95 ± 0.16 |
| AACGAGCAAUAUUACGAAGG | -5.17 ± 0.51 | – |
| CCACAGCAAUAUUACGAUCC | – | -2.93 ± 0.61 |
| GUCCAGCAAUAUUACGUUGA | -0.801 ± 0.057 | -0.239 ± 0.071 |
